Our source for the binding values is article PMC7793867.

Amino acid sequences for entries named in this document (tags omitted). A change or cut given only in a name is not applied to a line headed by its entry. Residues count along the entry.
UniProt P10643, residues 23-843: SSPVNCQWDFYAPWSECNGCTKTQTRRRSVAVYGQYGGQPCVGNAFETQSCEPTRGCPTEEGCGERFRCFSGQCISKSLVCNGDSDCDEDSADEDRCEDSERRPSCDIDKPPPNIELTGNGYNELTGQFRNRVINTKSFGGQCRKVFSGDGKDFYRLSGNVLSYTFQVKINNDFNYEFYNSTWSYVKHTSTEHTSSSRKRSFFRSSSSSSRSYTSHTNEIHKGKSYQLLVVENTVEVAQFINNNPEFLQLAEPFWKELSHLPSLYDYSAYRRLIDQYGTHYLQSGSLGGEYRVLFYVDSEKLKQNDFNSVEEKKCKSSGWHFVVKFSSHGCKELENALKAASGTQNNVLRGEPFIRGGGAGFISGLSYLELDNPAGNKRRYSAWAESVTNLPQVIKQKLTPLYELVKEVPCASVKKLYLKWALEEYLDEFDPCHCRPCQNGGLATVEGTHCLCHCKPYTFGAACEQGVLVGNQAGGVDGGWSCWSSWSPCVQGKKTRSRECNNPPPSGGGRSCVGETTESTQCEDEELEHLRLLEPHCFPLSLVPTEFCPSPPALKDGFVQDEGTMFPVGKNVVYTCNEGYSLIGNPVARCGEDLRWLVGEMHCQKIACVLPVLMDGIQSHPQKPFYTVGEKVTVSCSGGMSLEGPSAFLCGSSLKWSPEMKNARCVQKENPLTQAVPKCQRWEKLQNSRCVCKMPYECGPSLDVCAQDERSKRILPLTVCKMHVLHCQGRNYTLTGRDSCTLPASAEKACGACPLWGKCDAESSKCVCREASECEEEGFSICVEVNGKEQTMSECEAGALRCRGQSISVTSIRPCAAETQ
UniProt P02748, residues 22-559: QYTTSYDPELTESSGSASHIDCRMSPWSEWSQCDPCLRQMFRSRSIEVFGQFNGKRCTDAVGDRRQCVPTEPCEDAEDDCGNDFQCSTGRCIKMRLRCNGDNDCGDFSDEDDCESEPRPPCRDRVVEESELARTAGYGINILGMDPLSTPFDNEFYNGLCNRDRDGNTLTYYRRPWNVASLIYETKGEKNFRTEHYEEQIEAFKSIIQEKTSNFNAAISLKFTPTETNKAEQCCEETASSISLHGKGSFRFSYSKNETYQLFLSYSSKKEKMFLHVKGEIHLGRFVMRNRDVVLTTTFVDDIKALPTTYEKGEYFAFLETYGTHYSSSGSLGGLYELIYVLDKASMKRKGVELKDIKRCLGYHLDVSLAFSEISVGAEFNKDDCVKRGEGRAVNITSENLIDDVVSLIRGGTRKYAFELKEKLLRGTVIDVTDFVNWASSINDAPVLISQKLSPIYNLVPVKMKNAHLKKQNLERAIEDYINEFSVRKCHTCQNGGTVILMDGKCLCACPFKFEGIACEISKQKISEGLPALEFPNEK
UniProt P07357: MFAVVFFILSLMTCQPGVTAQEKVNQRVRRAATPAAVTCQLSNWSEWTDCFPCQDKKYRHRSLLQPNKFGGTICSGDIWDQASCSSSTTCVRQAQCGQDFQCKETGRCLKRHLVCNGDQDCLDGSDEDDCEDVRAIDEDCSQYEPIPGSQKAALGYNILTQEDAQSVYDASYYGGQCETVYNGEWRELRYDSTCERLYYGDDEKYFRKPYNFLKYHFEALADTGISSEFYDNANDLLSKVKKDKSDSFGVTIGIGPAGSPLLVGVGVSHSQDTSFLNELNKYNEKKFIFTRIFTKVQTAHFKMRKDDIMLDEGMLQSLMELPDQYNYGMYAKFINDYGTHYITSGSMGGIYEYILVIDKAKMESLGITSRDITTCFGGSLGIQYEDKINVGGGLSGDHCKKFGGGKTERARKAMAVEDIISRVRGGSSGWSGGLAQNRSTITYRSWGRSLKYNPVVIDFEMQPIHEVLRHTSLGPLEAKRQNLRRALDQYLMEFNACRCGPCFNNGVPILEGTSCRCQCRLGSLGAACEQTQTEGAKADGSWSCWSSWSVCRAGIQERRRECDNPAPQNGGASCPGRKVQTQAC
UniProt P13671, residues 22-934: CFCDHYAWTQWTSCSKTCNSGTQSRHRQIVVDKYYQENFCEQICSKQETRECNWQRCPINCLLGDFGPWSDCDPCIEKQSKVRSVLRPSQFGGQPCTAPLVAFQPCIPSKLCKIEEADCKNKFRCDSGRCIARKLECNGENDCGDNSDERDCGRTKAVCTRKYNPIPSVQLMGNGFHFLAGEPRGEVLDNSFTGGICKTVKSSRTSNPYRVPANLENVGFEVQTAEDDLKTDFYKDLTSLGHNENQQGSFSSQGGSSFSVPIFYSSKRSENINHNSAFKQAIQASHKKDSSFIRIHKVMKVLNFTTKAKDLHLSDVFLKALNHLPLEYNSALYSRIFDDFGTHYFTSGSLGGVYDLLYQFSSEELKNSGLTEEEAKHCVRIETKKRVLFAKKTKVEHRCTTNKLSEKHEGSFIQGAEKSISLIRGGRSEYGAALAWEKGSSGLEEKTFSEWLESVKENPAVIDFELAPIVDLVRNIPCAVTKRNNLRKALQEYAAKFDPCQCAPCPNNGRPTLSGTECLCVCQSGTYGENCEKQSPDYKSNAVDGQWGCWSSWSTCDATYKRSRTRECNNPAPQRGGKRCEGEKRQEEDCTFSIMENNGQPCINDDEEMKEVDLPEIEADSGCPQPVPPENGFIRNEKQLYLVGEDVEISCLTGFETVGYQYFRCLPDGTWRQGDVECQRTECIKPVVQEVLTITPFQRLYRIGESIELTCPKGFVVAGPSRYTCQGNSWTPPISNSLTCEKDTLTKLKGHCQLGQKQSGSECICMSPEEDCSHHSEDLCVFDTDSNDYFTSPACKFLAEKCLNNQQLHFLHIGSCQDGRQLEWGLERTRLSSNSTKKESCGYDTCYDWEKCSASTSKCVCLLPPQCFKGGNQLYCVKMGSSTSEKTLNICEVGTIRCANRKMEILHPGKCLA

In assay [1] the target is human complement component C7 (human (endogenous in serum)) (UniProt P10643). The assay can be described thus: co-IP; biotinylated anti-C7/C5b-7 mAb (2H2 in rat and human serum; 17E7, 59E7, 73D1 in human serum) present at 100 µg/ml during activation of serum with zymosan A and aggregated human IgG at 37°C; captured on avidin beads, washed in PBS, eluted in SDS buffer; western blot with goat anti-C5, -C6, -C7, -C8, -C9. (Immunoblotting shows a protein as a band on a membrane.)

For assay [2], the target named is human complement component C9 (human (endogenous in serum)) (UniProt P02748). The assay can be described thus: ELISA; pre-formed TCC in activated serum (1 in 50) captured on aE11 anti-C9 neo-specific antibody; detected with biotinylated anti-C7 mAbs or E2 anti-C8 and streptavidin-HRP. (In an ELISA, binding on a coated surface is turned into a signal by an enzyme label.)

For assay [3], the target named is human complement component C7 (human (endogenous in serum)) (UniProt P10643). The experiment in a line: ELISA; serum activated in the presence of biotinylated mAb, captured on avidin-coated plates; components detected with goat anti-C5, -C6, -C7, -C8, -C9.

No constants are given. Whether binding was seen depends on the method and setting. For some assays here: Binding seen in cells or lysates may run through a third protein. Some entries that bind do so weakly or less than the wild type.

On to “human complement component C8 (from UniProt P07357 31-584; P07358 55-591; P07360 21-202) (complex)”, for which the binding entry in assay [1], in assay [2] and in assay [3] was “binds” throughout.
For the substance “human complement component C9 (from UniProt P02748 22-559)”, the binding entry in assay [1] and in assay [3] was “binds” in each case.
With “human complement component C6 (from UniProt P13671 22-934)”, the binding result in assay [1] and in assay [3] was “binds” throughout.
For the substance “human complement component C7 (from UniProt P10643 23-843)”, in assay [2], the binding entry is listed as “binds”.
